In brackets after ≈: the same amount, converted by molar mass.
Tested on: A549
Assay: Tumor cell proliferation, A549
Format: cell-based
Details: Homo sapiens; A549, 72 hours
Procedure: Cell Proliferation Assay. The effect of rK5 and rK5 peptides on endothelial cells were assessed using a proliferation assay with 1% BSA and 3 ng/ml bFGF in serum-free media. Relative cell numbers in each well of a 96 well microplate after incubation for 72 hours in the absence or presence of inhibitors were determined by using the AQueous cell proliferation assay (Promega, San Luis Obispo, Calif.). For all other cell lines tested for proliferation, minimal growth media was used (Cao, Y., Ji, R., Davidson, D., Schaller, J., Marti, D., Sohndel, S., McCance, S., O'Reilly, M., Llinas, M., and Folkman, J. Kringle domains of human angiostatin. Characterization of the anti-proliferative activity on endothelial cells. (1996) J. Biol. Chem. 271, 29461-29467). Results are presented as the percent inhibition of control cell (bFGF-induced) proliferation.

IC50: 0.051 ± 0.006 µg/mL (≈ 0.0938 µM)
Compound: COc1cccc2c1C(=O)c1c(O)c3c(c(O)c1C2=O)C[C@@](O)(C(=O)CO)C[C@@H]3O[C@H]1C[C@H](N)[C@H](O)[C@H](C)O1 [Adriamycin, reference compound]

Reference: patent US20050053993A1, “Uses of an endothelial cell receptor” (priority 2002, published 2005)
